This assay is described as follows: qHTS Assay for Modulators of Lamin A Splicing. Conditions: HeLa LMNA splicing GFP/RFP minigene ratio, 48 h. An excerpt: NCGC Assay Overview: Hutchinson-Gilford Progeria Syndrome (HGPS) is a pediatric premature aging disease caused by a spontaneous mutation in the lamin A/C (LMNA) gene. The mutation activates a cryptic splice site in the LMNA pre-mRNA which results in production of a pre-lamin A protein that cannot be processed properly. The mutant protein accumulates in the nucleus and negatively affects numerous cellular functions. Correction of the splicing defect in HGPS patient cells using a targeted oligonucleotide (exo11) leads to reversal of the cellular disease phenotypes. To identify small molecule modulators of aberrant LMNA splicing, a homogenous assay was constructed in HeLa cells that used a GFP containing minigene to report on correction of aberrant splicing in lamin A and a RFP (DsRed2) to report on cell viability, uniformity and nonspecific effects on the assay signal. This assay was adapted to laser-scanning microplate cytometry (Acumen, TTP Labtech) where miniaturization of the assay to a 1,536-well plate format was possible. References: Bowen, W. P.; Wylie, P. G. Application of Laser-Scanning Fluorescence Microplate Cytometry in High Content Screening. Assay Drug Dev Technol 2006;4:209-221. Scaffidi P, Misteli T. Reversal of the cellular phenotype in the premature aging disease Hutchinson-Gilford progeria syndrome. Nat.
NCGC Assay Protocol Summary: Reagents/Controls: Stable clones expressing DsRed2 and lamin A-EGFP were generated by Cell and Molecular Technologies in S3 HeLa cells. HeLa cells were prepared for the assay when they were 70-90% confluent. The cells were counted and resuspended in Opti-MEM I (no phenol red; Gibco), 2% FBS, 1% penicillin/ streptomycin (Gibco) at concentration of 120 cells/uL concentration. The suspension was passed through a Falcon basket filter with pore size 40um (Beckton Dickson). Control titrations: column […] 1536-well plate contained a sixteen point titration (1:2 dilutions) in duplicate of ancitabine (Sigma: A8598) beginning at 40 uM final concentration. Column 2 contained a sixteen point titration (1:2 dilutions) of cycloheximide beginning at 1.4 mM final concentration. Column 3 contained ancitabine at 40 uM and column 4 contained was the vehicle control (0.5% DMSO final concentration). Assay Steps: 5 uL of HeLa cells were plated in Aurora LoBase black clear bottom (cyclic-olefin polymer) 1536-well plates at a final density of 600 cells/well. Controls and library compounds were added with a 1536-well pin array using the Kalypsys pin-tool. The plates were then incubated for 48 hrs in a cell-culture incubator (37 °C; 5% CO2, 98% humidity). Following incubation the plates were read on the Acumen Explorer using the 488 nm laser. Data was collected on objects between 10 and 100 um in size. Cell objects were defined by a 15 um width x 10 um depth filter. The ratio of the total object intensity in PMT1 (500-530 nm emission; GFP) over PMT3 (575-640 nm emission; RFP) was calculated for analysis. Keywords: NIH Roadmap, MLSCN, MLI, MLSMR, qHTS, NCGC, lamin A, Progeria, RNA splicing.
For orientation: In qHTS, concentration-response curves come from the screen itself.

The mark [1] stands for this setting: measured here: GFP splicing reporter channel.
The mark [2] stands for this setting: measured here: RFP viability control channel.

Values joined by “and” are separate entries in the source; they are usually repeats but may differ in a detail not shown here. Identical values can stand only once. This is one part of the list. The main result of the screen is listed elsewhere. These columns were measured beside it and carry no call. The list favours compounds with an active or inconclusive main result. Words in brackets tell the shape of the fitted curve; partial curves, single points and poor fits give uncertain potencies.

Regarding `COc1ccccc1N1CCNCC1`, the AC50 is 5.62 µM [falling, partial curve, poor fit] under setting [1] and 6.31 µM [falling, partial curve, poor fit] under setting [2].
As for `COC(=O)CCc1nc2c(C#N)c(-c3ccc(Cl)cc3)ccn2n1`, the AC50 under setting [2] was 0.0355 µM [falling, full curve, poor fit].
With `CCCNC(=O)c1cnn2c(C)c(Cc3c(C)cc(C)cc3C)c(C)nc12`, the AC50 is 17.8 µM [falling, partial curve, poor fit] under setting [1] and 35.5 µM [falling, single point] under setting [2].
On to `Nc1ncnc2c1ncn2[C@@H]1O[C@H](COP(=O)(O)OP(=O)(O)OP(=O)(O)O)[C@@H](O)[C@H]1O`, for which the AC50 by setting is: under setting [1], 3.16 µM [falling, full curve, poor fit]; under setting [2], 0.00501 µM [falling, full curve, poor fit].
Turning to `C[C@]12CC[C@@H]3c4cc(O)c(O)cc4CC[C@H]3[C@@H]1CC[C@@H]2O`, the AC50 was 12.6 µM [falling, partial curve, poor fit] under setting [1] and 17.8 µM [falling, single point] under setting [2].
In the case of `CN1C[C@@H](CS(=O)(=O)N(C)C)C[C@@H]2c3cccc4c3c(cn4C)C[C@H]21`, the AC50 under setting [1] is 6.31 µM [falling, partial curve, poor fit] and the AC50 under setting [2] was 5.62 µM [falling, partial curve, poor fit].
As to `CNCCC(Oc1ccc(C(F)(F)F)cc1)c1ccccc1` (stereo unspecified), the AC50 under setting [1] was 1.58 µM [rising, full curve] and 4.47 nM [falling, full curve, poor fit] and 11.2 µM [falling, partial curve, poor fit]; the AC50 under setting [2] was 12.6 µM [falling, partial curve, poor fit] and 158 nM [falling, full curve, poor fit].
Turning to `COc1cc(CN2C(=O)NC(=O)C3(Cc4cc(C)ccc4N(C)C3)C2=O)cc(OC)c1` (stereo unspecified), the AC50 under setting [2] was 14.1 µM [rising, single point].
For the compound `Oc1ccc(Cl)cc1Cc1cc(Cl)ccc1O`, the AC50 was 1.58 µM [falling, partial curve, poor fit] under setting [1] and 3.55 µM [rising, single point] under setting [2].
Take `CC12CN3CC(C)(CN(C1)C3c1ccncc1)C2=O` (stereo unspecified): the AC50 under setting [2] is 5.62 µM [falling, single point].
For the compound `CC(=O)Nc1ccc(S(=O)(=O)N2CCSC2c2ccc(C)cc2)cc1` (stereo unspecified), the AC50 runs as follows: under setting [1], 1.41 µM [rising, full curve]; under setting [2], 14.1 µM [rising, partial curve].
Regarding `O=C1CC(c2cccnc2)=NN1c1ccc(Cl)cc1Cl`, the AC50 under setting [2] was 14.1 µM [rising, partial curve, poor fit].
For `NC(=O)c1ncn([C@@H]2O[C@H](CO)[C@@H](O)[C@H]2O)n1`, the AC50 under setting [1] is 5.62 µM [falling, partial curve, poor fit] and the AC50 under setting [2] is 0.00398 µM [falling, full curve, poor fit].
On to `CCN(CC)S(=O)(=O)c1ccc(C)c(NCC(=O)Nc2ccc(C#N)c(Cl)c2)c1`, for which the AC50 by setting is: under setting [1], 35.5 µM [rising, single point]; under setting [2], 28.2 µM [rising, single point].
For `CC(C)C(=O)Nc1ccc(C(=O)NCc2cccnc2)cc1`, the AC50 under setting [2] was 35.5 µM [rising, single point].
On to `O=C1NC(=O)C2(Cc3ccccc3N3CCCC32)C(=O)N1c1ccccc1` (stereo unspecified), for which the AC50 under setting [2] is 0.631 µM [rising, full curve, poor fit].
As for `COc1cccc(NP(=O)(Oc2ccccc2Cl)Oc2ccccc2Cl)c1`, the AC50 under setting [1] was 35.5 µM [falling, partial curve, poor fit].
Take `COP(=O)(OC)C1(O)C(=O)Nc2ccc(Br)cc21` (stereo unspecified): the AC50 under setting [2] was 2.51 µM [rising, partial curve].
For the compound `C/C(O)=C(\C#N)C(=O)Nc1cc(Br)ccc1Br`, the AC50 was 20 µM [rising, partial curve, poor fit] under setting [1] and 20 µM [rising, single point] under setting [2].
Regarding `CNC(=O)Oc1cccc2c1OC(C)(C)C2`, the concentration at half-maximal activity (AC50) reads like this: under setting [1], 17.8 µM [rising, partial curve]; under setting [2], 14.1 µM [rising, partial curve, poor fit].
Take `CC(C)COC(=O)OCN1C(=O)CN(CCN2CC(=O)N(COC(=O)OCC(C)C)C(=O)C2)CC1=O`: the AC50 under setting [2] was 10 µM [rising, partial curve, poor fit].
Turning to `O=C(O)C1C2CCC(O2)C1C(=O)Nc1ccc(Cl)cc1` (stereo unspecified), the AC50 under setting [2] is 35.5 µM [rising, single point].
Regarding `Cc1ccc(CN2C(=O)c3ccccc3Sc3ccc(C(=O)N4CCC5(CC4)OCCO5)cc32)cc1`, the AC50 runs as follows: under setting [1], 5.62 µM [falling, partial curve, poor fit]; under setting [2], 0.02 µM [falling, full curve, poor fit].
As to `COC(=O)C1=C(N)Oc2cc(C)oc(=O)c2C12C(=O)Nc1ccccc12` (stereo unspecified), the AC50 under setting [2] is 0.178 µM [rising, full curve, poor fit].
As for `Oc1ccc2c3c1O[C@H]1[C@@H](O)CC[C@@]4(O)C(C2)N(CC2CCC2)CCC314` (stereo partly specified), the AC50 was 35.5 µM [falling, single point] under setting [1] and 11.2 µM [falling, partial curve, poor fit] under setting [2].
Take `O=c1[nH]c(=O)n(Cc2ccco2)c(O)c1C=NCc1ccco1`: the concentration at half-maximal activity (AC50) under setting [1] is 35.5 µM [rising, single point].
Consider `CN1C(=O)N(C)C(=O)C2(Cc3cc([N+](=O)[O-])ccc3N(C)C2)C1=O`, for which, under setting [2], the AC50 is 0.0126 µM [falling, full curve, poor fit].
Still for that read-out and setting: for `CCCC(C)(COC(N)=O)COC(=O)NC(C)C` (stereo unspecified) the value was 0.00562 µM [falling, full curve, poor fit].
With `CCC1(C)CC(=O)NC(=O)C1`, the AC50 was 6.31 µM [rising, partial curve, poor fit] under setting [1] and 11.2 µM [rising, partial curve, poor fit] under setting [2].
For the compound `Cc1nc2ccc(Br)cc2c(=O)n1-c1ccc([N+](=O)[O-])c(C(F)(F)F)c1`, under setting [2], the AC50 is 0.282 µM [falling, single point].
On to `CC(c1ncncc1F)[C@](O)(Cn1cncn1)c1ccc(F)cc1F` (stereo partly specified), for which the AC50 under setting [2] is 15.8 µM [falling, single point].

One may read the AC50 as the midpoint of the concentration-response curve, whichever way the signal moves.

Source of the values: PubChem BioAssay AID1487 (National Center for Advancing Translational Sciences (NCATS), 2009).
